Data source: PubChem BioAssay AID493246 (Drosophila RNAi Screening Center, 2011)
Test: 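Genes fly cells need to grow and stay alive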 (primary screen). Cells: Drosophila Kc and S2R+ cells. Reagent: long dsRNA against Drosophila genes. Detection: 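Cell number per well after knock-down, printed as raw plate values; calls were based on per-plate z-scores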. Reading the numbers: Kc cell number and S2R+ cell number: higher = more cells remaining. Active means: 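Active when the per-plate z-score of cell number is 3 or more in the direction of fewer cells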.
The screen tested about 21,000 reagents; below is a random part of those with a known target gene and a result. Of all reagents, 429 (2%) were called active. 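Values are raw and not normalised between plates; calls rest on per-plate z-scores that were not deposited.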 Names joined by + are all predicted targets of the reagent. No sequences are given here. The record does not give: the amount of reagent, the time to read-out.

| gene knocked down | DRSC id | Kc cell number, rep 1 | Kc cell number, rep 2 | S2R+ cell number, rep 1 | S2R+ cell number, rep 2 | Call |
| --- | --- | --- | --- | --- | --- | --- |
| Cyp313b1 | DRSC16629 | 1.46e6 | 1.75e6 | 1.23e6 | 1.29e6 | inactive |
| CG13728 | DRSC10056 | 1.57e6 | 1.56e6 | 1.29e6 | 1.42e6 | inactive |
| Sfp38D | DRSC01810 | 5.65e5 | – | 8.79e5 | – | inactive |
| Sodh1 | DRSC12605 | 1.62e6 | 1.66e6 | 1.44e6 | 1.48e6 | inactive |
| spo | DRSC11127 | 1.30e6 | 1.23e6 | 1.22e6 | 1.26e6 | inactive |
| NFAT | DRSC18991 | 1.36e6 | 1.35e6 | 8.75e5 | 1.03e6 | inactive |
| NFAT | DRSC19393 | 1.69e6 | 1.58e6 | 1.10e6 | 1.18e6 | inactive |
| aph-1 | DRSC00547 | 1.12e6 | 1.31e6 | 9.97e5 | 9.92e5 | inactive |
| tsg | DRSC20380 | 1.55e6 | 1.48e6 | 1.07e6 | 1.12e6 | inactive |
| ImpE1 | DRSC11195 | 1.35e6 | 1.37e6 | 1.12e6 | 1.15e6 | inactive |
| ImpE1 | DRSC11196 | 1.41e6 | 1.39e6 | 1.10e6 | 1.15e6 | inactive |
| Gdh | DRSC16679 | 1.44e6 | 1.47e6 | 8.51e5 | 9.38e5 | inactive |
| cn | DRSC07594 | 1.65e6 | 1.75e6 | 1.36e6 | 1.64e6 | inactive |
| Sec23 | DRSC12387 | 1.57e6 | 1.57e6 | 1.11e6 | 1.18e6 | inactive |
| CG42564 | DRSC12518 | 1.46e6 | 1.58e6 | 1.29e6 | 1.41e6 | inactive |
| PpD5 | DRSC04641 | 1.71e6 | 1.86e6 | 1.45e6 | 4.76e5 | inactive |
| CG34033 | DRSC05190 | 1.47e6 | 1.56e6 | 9.64e5 | 1.12e6 | inactive |
| CG34107 | DRSC14554 | 1.52e6 | 1.51e6 | 1.26e6 | 1.36e6 | inactive |
| CG8641 | DRSC11028 | 1.31e6 | 1.22e6 | 1.25e6 | 1.22e6 | inactive |
| inaF-A | DRSC19660 | 1.54e6 | 1.44e6 | 1.07e6 | 1.15e6 | inactive |
| SsRbeta | DRSC11290 | 1.63e6 | 1.63e6 | 1.33e6 | 1.38e6 | inactive |

4 of these entries, reformatted.
{"gene knocked down": "NFAT", "DRSC id": "DRSC18991", "Kc cell number, rep 1": 1.36e6, "Kc cell number, rep 2": 1.35e6, "S2R+ cell number, rep 1": 8.75e5, "S2R+ cell number, rep 2": 1.03e6, "Call": "inactive"}
{"gene knocked down": "NFAT", "DRSC id": "DRSC19393", "Kc cell number, rep 1": 1.69e6, "Kc cell number, rep 2": 1.58e6, "S2R+ cell number, rep 1": 1.10e6, "S2R+ cell number, rep 2": 1.18e6, "Call": "inactive"}
{"gene knocked down": "aph-1", "DRSC id": "DRSC00547", "Kc cell number, rep 1": 1.12e6, "Kc cell number, rep 2": 1.31e6, "S2R+ cell number, rep 1": 9.97e5, "S2R+ cell number, rep 2": 9.92e5, "Call": "inactive"}
{"gene knocked down": "tsg", "DRSC id": "DRSC20380", "Kc cell number, rep 1": 1.55e6, "Kc cell number, rep 2": 1.48e6, "S2R+ cell number, rep 1": 1.07e6, "S2R+ cell number, rep 2": 1.12e6, "Call": "inactive"}

Continued.
| gene knocked down | DRSC id | Kc cell number, rep 1 | Kc cell number, rep 2 | S2R+ cell number, rep 1 | S2R+ cell number, rep 2 | Call |
| --- | --- | --- | --- | --- | --- | --- |
| CCHa2-R | DRSC04825 | 1.57e6 | 1.73e6 | 9.67e5 | 1.07e6 | inactive |
| CCHa2-R | DRSC04870 | 1.52e6 | 1.57e6 | 1.24e6 | 1.54e6 | inactive |
| CCHa2-R | DRSC04871 | 1.56e6 | 1.58e6 | 1.24e6 | 1.41e6 | inactive |
| CG3032 | DRSC18266 | 1.49e6 | 1.51e6 | 1.08e6 | 1.19e6 | inactive |
| CG34200 | DRSC04804 | 1.43e6 | 1.53e6 | 9.77e5 | 1.01e6 | inactive |
| eRF1 | DRSC11779 | 1.50e6 | 1.61e6 | 1.12e6 | 1.17e6 | inactive |
| CG32801 | DRSC17964 | 1.52e6 | 1.48e6 | 1.05e6 | 1.14e6 | inactive |
| CG33791 + CG12105 + CG18170 | DRSC08387 | 1.41e6 | 1.49e6 | 1.18e6 | 1.24e6 | inactive |
| CG4789 | DRSC19918 | 1.48e6 | 1.48e6 | 1.03e6 | 1.12e6 | inactive |
| mAChR-C | DRSC17890 | 1.45e6 | 1.45e6 | 1.01e6 | 1.12e6 | inactive |
| CG43861 + CG12508 (retired record) | DRSC02170 | 1.58e6 | 1.63e6 | 1.28e6 | 3.26e5 | inactive |
| CG3868 | DRSC10380 | 1.39e6 | 1.47e6 | 1.32e6 | 1.20e6 | inactive |
| Nrt | DRSC11237 | 1.59e6 | 1.56e6 | 1.17e6 | 1.26e6 | inactive |
| RhoGEF3 (retired record) | DRSC08266 | 1.62e6 | 1.78e6 | 1.10e6 | 1.15e6 | inactive |
| RhoGEF3 (retired record) | DRSC08353 | 1.36e6 | 1.13e6 | 1.05e6 | 1.27e6 | inactive |
| Nup160 | DRSC02774 | 1.36e6 | 1.57e6 | 1.08e6 | 1.21e6 | inactive |
| Rab40 | DRSC19820 | 1.63e6 | 1.54e6 | 1.12e6 | 1.10e6 | inactive |
| CG32625 | DRSC18994 | 1.65e6 | 1.72e6 | 1.10e6 | 1.21e6 | inactive |
| CG11241 | DRSC11641 | 1.40e6 | 1.38e6 | 1.03e6 | 1.11e6 | inactive |
